Laboratory results published in the supplement of paper PMC6078165.
± gives the standard deviation of the averaged measurements. Values are relative to the signal before dosing, not to a vehicle control; the signal also falls without drug.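 Fibroblast labels name human fibroblasts: mostly primary ones from tissues such as uterus (C12385, HUF), lung (H6013), bone (Hs27A), adrenal (HADF) and skin (WS1), plus mammary HMF and breast cancer-associated Hs343T. The cancer cells are basal-like or mesenchymal-like triple-negative breast cancer lines. The paper calls a changed response a hit when it shifts by more than 3x the replicate standard deviation. The tissue of the other fibroblasts is not given here.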

Test system: MDAMB468
Assay: relative JC-1 red fluorescence (viability) vs pre-drug, coculture with fibroblast (fraction); higher = more viable cancer cells
Experimental: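 JC-1 labelled TNBC cells cocultured 1:1 (1,500 cells each) with CellTrace Violet stained primary or stromal fibroblasts in 384-well plates in FluoroBrite medium, treated with one of 42 anticancer drugs at 0.1, 1, 10 or 100 uM. JC-1 red fluorescence (mitochondrial integrity in cancer cells only) was read by plate reader every 8 h for 72 h. Values are normalised to each well's pre-drug value. The stock of one drug was tenfold lower, so its dose labels may be too high.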

O=C(O)C1(C(=O)O)CCC1.[NH2-].[NH2-].[Pt+2] [Carboplatin]
relative JC-1 red fluorescence
Details | 8 h | 16 h | 24 h | 32 h | 40 h | 48 h | 56 h | 64 h | 72 h
10 µM, coculture fibroblast: C12385 | 0.8864 ± 0.0022 | 0.84 ± 0.015 | 0.7847 ± 0.003 | 0.7208 ± 0.0037 | 0.669 ± 0.008 | 0.645 ± 0.0081 | 0.599 ± 0.013 | 0.557 ± 0.01 | 0.5308 ± 0.0034
10 µM, coculture fibroblast: H6013 | 0.8838 ± 0.0066 | 0.8265 ± 0.0075 | 0.8058 ± 0.0021 | 0.791 ± 0.011 | 0.76 ± 0.034 | 0.757 ± 0.047 | 0.728 ± 0.042 | 0.708 ± 0.036 | 0.658 ± 0.044
10 µM, coculture fibroblast: H6019 | 0.837 ± 0.031 | 0.77 ± 0.023 | 0.745 ± 0.024 | 0.688 ± 0.035 | 0.647 ± 0.049 | 0.628 ± 0.059 | 0.577 ± 0.054 | 0.545 ± 0.048 | 0.524 ± 0.041
10 µM, coculture fibroblast: H6076 | 0.958 ± 0.012 | 0.817 ± 0.12 | 0.894 ± 0.055 | 0.903 ± 0.024 | 0.827 ± 0.017 | 0.825 ± 0.0089 | 0.7847 ± 0.0024 | 0.769 ± 0.0099 | 0.822 ± 0.026
10 µM, coculture fibroblast: H6231 | 0.8593 ± 0.0081 | 0.9449 ± 0.0016 | 0.8969 ± 0.0078 | 0.9096 ± 0.0055 | 0.859 ± 0.019 | 0.842 ± 0.019 | 0.788 ± 0.0088 | 0.7714 ± 0.0064 | 0.763 ± 0.009
10 µM, coculture fibroblast: HADF | 0.9011 ± 0.0019 | 0.8395 ± 0.0083 | 0.795 ± 0.0096 | 0.784 ± 0.017 | 0.722 ± 0.014 | 0.706 ± 0.026 | 0.657 ± 0.03 | 0.626 ± 0.039 | 0.574 ± 0.031
10 µM, coculture fibroblast: HCFa | 0.8763 ± 0.007 | 0.821 ± 0.031 | 0.787 ± 0.018 | 0.764 ± 0.014 | 0.698 ± 0.015 | 0.686 ± 0.0093 | 0.631 ± 0.0067 | 0.6002 ± 0.0032 | 0.5578 ± 0.0011
10 µM, coculture fibroblast: HCPF | 0.888 ± 0.017 | 0.9782 ± 0.0044 | 0.936 ± 0.019 | 0.924 ± 0.025 | 0.848 ± 0.015 | 0.818 ± 0.017 | 0.775 ± 0.0079 | 0.7583 ± 0.0026 | 0.7531 ± 0.001
10 µM, coculture fibroblast: HHSteC | 0.8976 ± 0.0036 | 0.8474 ± 0.0016 | 0.81104 ± 0.00049 | 0.7666 ± 0.0028 | 0.7242 ± 0.0052 | 0.719 ± 0.011 | 0.654 ± 0.0066 | 0.623 ± 0.016 | 0.567 ± 0.018
10 µM, coculture fibroblast: HMF | 0.8622 ± 0.0057 | 0.924 ± 0.07 | 0.905 ± 0.028 | 0.881 ± 0.019 | 0.822 ± 0.026 | 0.802 ± 0.027 | 0.752 ± 0.027 | 0.728 ± 0.034 | 0.696 ± 0.025
10 µM, coculture fibroblast: HPFa | 0.956 ± 0.044 | 0.939 ± 0.057 | 0.917 ± 0.053 | 0.863 ± 0.053 | 0.843 ± 0.068 | 0.848 ± 0.059 | 0.773 ± 0.055 | 0.751 ± 0.048 | 0.652 ± 0.029
10 µM, coculture fibroblast: HUF | 0.907 ± 0.0097 | 0.813 ± 0.033 | 0.745 ± 0.036 | 0.673 ± 0.037 | 0.618 ± 0.021 | 0.579 ± 0.023 | 0.537 ± 0.016 | 0.507 ± 0.0079 | 0.471 ± 0.0069
10 µM, coculture fibroblast: Hs5 | 0.875 ± 0.14 | 0.888 ± 0.11 | 0.947 ± 0.012 | 0.911 ± 0.031 | 0.84 ± 0.022 | 0.815 ± 0.024 | 0.781 ± 0.035 | 0.754 ± 0.051 | 0.784 ± 0.076
10 µM, coculture fibroblast: Hs27A | 0.866 ± 0.00075 | 0.816 ± 0.011 | 0.789 ± 0.011 | 0.7817 ± 0.0078 | 0.721 ± 0.01 | 0.715 ± 0.015 | 0.685 ± 0.0091 | 0.672 ± 0.012 | 0.625 ± 0.0084
10 µM, coculture fibroblast: Hs343T | 0.9135 ± 0.007 | 0.922 ± 0.04 | 0.91 ± 0.029 | 0.88924 ± 0.0007 | 0.8056 ± 0.0055 | 0.7849 ± 0.0013 | 0.719 ± 0.01 | 0.693 ± 0.022 | 0.661 ± 0.031
10 µM, coculture fibroblast: WS1 | 0.8754 ± 0.0053 | 0.7911 ± 0.0024 | 0.7347 ± 0.0048 | 0.662 ± 0.01 | 0.605 ± 0.015 | 0.56 ± 0.013 | 0.518 ± 0.015 | 0.471 ± 0.024 | 0.44 ± 0.021
100 µM, coculture fibroblast: C12385 | 0.843 ± 0.017 | 0.821 ± 0.03 | 0.792 ± 0.038 | 0.728 ± 0.0083 | 0.667 ± 0.013 | 0.643 ± 0.0066 | 0.604 ± 0.015 | 0.589 ± 0.012 | 0.575 ± 0.0071
100 µM, coculture fibroblast: H6013 | 0.884 ± 0.0029 | 0.884 ± 0.023 | 0.86 ± 0.054 | 0.844 ± 0.1 | 0.861 ± 0.11 | 0.874 ± 0.11 | 0.868 ± 0.13 | 0.868 ± 0.13 | 0.796 ± 0.12
100 µM, coculture fibroblast: H6019 | 0.84 ± 0.0095 | 0.821 ± 0.023 | 0.777 ± 0.038 | 0.664 ± 0.048 | 0.603 ± 0.054 | 0.592 ± 0.07 | 0.552 ± 0.082 | 0.539 ± 0.081 | 0.532 ± 0.08
100 µM, coculture fibroblast: H6076 | 0.893 ± 0.012 | 0.91 ± 0.021 | 0.8466 ± 0.0078 | 0.8474 ± 0.0066 | 0.757 ± 0.032 | 0.742 ± 0.032 | 0.721 ± 0.044 | 0.712 ± 0.044 | 0.767 ± 0.058
100 µM, coculture fibroblast: H6231 | 0.779 ± 0.021 | 0.8385 ± 0.008 | 0.756 ± 0.015 | 0.73 ± 0.011 | 0.624 ± 0.038 | 0.58 ± 0.028 | 0.53 ± 0.025 | 0.508 ± 0.019 | 0.517 ± 0.024
100 µM, coculture fibroblast: HADF | 0.8779 ± 0.0051 | 0.828 ± 0.018 | 0.7594 ± 0.0053 | 0.677 ± 0.013 | 0.649 ± 0.011 | 0.648 ± 0.02 | 0.611 ± 0.02 | 0.605 ± 0.014 | 0.534 ± 0.01
100 µM, coculture fibroblast: HCFa | 0.877 ± 0.0074 | 0.884 ± 0.02 | 0.833 ± 0.013 | 0.79 ± 0.023 | 0.75 ± 0.029 | 0.752 ± 0.027 | 0.699 ± 0.023 | 0.667 ± 0.017 | 0.603 ± 0.018
100 µM, coculture fibroblast: HCPF | 0.849 ± 0.0087 | 0.875 ± 0.036 | 0.784 ± 0.03 | 0.742 ± 0.016 | 0.6329 ± 0.0037 | 0.5919 ± 0.0042 | 0.543 ± 0.0071 | 0.529 ± 0.0056 | 0.5324 ± 0.0044
100 µM, coculture fibroblast: HHSteC | 0.875 ± 0.051 | 0.822 ± 0.067 | 0.768 ± 0.055 | 0.692 ± 0.053 | 0.656 ± 0.028 | 0.659 ± 0.017 | 0.601 ± 0.03 | 0.571 ± 0.012 | 0.513 ± 0.016
100 µM, coculture fibroblast: HMF | 0.823 ± 0.027 | 0.858 ± 0.011 | 0.7863 ± 0.0024 | 0.7407 ± 0.0059 | 0.624 ± 0.0021 | 0.58 ± 0.0099 | 0.533 ± 0.013 | 0.516 ± 0.018 | 0.518 ± 0.018
100 µM, coculture fibroblast: HPFa | 0.905 ± 0.011 | 0.9031 ± 0.0014 | 0.875 ± 0.03 | 0.788 ± 0.039 | 0.774 ± 0.029 | 0.772 ± 0.03 | 0.713 ± 0.04 | 0.696 ± 0.02 | 0.61 ± 0.012
100 µM, coculture fibroblast: HUF | 0.869 ± 0.012 | 0.786 ± 0.0086 | 0.7045 ± 0.0026 | 0.6 ± 0.01 | 0.545 ± 0.029 | 0.534 ± 0.043 | 0.491 ± 0.037 | 0.483 ± 0.044 | 0.467 ± 0.046
100 µM, coculture fibroblast: Hs5 | 0.936 ± 0.029 | 0.914 ± 0.057 | 0.84 ± 0.018 | 0.7846 ± 0.0052 | 0.695 ± 0.018 | 0.65 ± 0.042 | 0.636 ± 0.05 | 0.611 ± 0.046 | 0.637 ± 0.055
100 µM, coculture fibroblast: Hs27A | 0.8482 ± 0.0039 | 0.8988 ± 0.0072 | 0.826 ± 0.015 | 0.78982 ± 0.0003 | 0.7523 ± 0.0027 | 0.76 ± 0.012 | 0.7272 ± 0.0059 | 0.7208 ± 0.0012 | 0.6462 ± 0.0013
100 µM, coculture fibroblast: Hs343T | 0.8395 ± 0.0055 | 0.8695 ± 0.0019 | 0.785 ± 0.015 | 0.711 ± 0.031 | 0.571 ± 0.011 | 0.533 ± 0.013 | 0.487 ± 0.017 | 0.468 ± 0.018 | 0.468 ± 0.023
100 µM, coculture fibroblast: WS1 | 0.839 ± 0.037 | 0.808 ± 0.046 | 0.746 ± 0.058 | 0.641 ± 0.066 | 0.577 ± 0.055 | 0.537 ± 0.064 | 0.497 ± 0.05 | 0.474 ± 0.041 | 0.469 ± 0.044
